## Results of single-concentration screens

Sequences of proteins named here, by UniProt entry; tags and fusion partners are left off. Residues count along the entry.
UniProt A4I591, 1-473: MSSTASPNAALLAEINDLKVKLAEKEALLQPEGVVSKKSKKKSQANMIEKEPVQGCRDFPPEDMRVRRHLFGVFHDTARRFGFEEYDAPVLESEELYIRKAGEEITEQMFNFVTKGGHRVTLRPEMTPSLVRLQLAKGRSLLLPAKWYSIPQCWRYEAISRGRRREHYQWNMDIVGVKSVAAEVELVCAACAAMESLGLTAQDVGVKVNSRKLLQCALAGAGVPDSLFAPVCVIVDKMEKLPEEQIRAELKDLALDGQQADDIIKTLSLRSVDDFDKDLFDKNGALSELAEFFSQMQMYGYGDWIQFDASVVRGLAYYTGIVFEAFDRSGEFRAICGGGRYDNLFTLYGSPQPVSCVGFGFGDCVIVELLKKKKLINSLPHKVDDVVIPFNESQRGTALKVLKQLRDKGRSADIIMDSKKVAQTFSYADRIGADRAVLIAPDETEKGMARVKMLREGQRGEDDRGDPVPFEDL
UniProt I6X8D2, whole entry: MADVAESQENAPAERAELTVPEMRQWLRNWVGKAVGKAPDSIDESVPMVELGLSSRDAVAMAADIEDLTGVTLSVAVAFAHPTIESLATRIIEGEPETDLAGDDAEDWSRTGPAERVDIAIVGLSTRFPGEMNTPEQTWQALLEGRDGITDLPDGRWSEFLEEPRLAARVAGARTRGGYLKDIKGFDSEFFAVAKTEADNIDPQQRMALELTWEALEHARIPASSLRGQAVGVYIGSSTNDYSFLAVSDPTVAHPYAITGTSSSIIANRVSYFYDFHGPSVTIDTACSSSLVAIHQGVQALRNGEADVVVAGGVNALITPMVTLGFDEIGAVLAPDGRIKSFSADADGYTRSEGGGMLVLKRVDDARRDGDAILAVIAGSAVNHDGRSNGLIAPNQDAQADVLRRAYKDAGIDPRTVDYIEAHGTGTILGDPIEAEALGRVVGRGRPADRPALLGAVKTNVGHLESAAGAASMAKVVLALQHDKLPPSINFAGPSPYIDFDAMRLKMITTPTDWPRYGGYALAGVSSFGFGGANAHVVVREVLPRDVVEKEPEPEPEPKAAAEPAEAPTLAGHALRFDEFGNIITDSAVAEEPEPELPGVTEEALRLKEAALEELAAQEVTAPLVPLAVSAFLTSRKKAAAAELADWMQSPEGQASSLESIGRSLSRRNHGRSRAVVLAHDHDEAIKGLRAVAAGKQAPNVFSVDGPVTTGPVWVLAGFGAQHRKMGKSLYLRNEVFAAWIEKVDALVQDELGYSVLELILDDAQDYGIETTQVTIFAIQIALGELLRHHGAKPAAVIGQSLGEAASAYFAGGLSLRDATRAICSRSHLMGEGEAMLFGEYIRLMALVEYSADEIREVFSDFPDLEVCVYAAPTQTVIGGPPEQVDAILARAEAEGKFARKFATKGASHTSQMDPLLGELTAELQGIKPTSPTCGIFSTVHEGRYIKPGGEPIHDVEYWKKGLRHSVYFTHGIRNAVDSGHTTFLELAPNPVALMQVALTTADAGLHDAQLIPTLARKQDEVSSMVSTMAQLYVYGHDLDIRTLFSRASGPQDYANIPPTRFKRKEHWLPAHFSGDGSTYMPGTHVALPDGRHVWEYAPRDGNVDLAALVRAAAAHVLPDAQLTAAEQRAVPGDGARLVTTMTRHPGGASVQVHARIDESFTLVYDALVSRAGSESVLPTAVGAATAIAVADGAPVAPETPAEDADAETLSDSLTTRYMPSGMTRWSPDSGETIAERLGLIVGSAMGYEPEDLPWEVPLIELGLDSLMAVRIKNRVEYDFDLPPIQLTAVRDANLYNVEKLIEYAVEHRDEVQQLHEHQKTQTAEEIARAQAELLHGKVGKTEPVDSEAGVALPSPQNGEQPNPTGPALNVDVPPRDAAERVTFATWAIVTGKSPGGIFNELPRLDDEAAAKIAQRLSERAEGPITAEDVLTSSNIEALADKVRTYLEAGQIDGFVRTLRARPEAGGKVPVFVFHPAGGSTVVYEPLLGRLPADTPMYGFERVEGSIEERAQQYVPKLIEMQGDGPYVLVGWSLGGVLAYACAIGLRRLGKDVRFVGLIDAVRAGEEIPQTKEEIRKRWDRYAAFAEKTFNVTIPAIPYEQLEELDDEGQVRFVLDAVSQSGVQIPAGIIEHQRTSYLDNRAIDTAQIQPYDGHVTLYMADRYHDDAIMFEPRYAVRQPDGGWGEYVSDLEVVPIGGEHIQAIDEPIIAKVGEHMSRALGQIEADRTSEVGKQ

Data taken from ChEMBL document CHEMBL3988442, “University of Dundee, Small-Polar-MMV Screening Library” (2021).

The filed quantity is “Percent Effect” (%). The controls that fix the scale are not given in the record; negative values are as filed. This is an unselected part of the compounds tested. A dash means the value is not listed here; it may have been measured.

LiHisRS: 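Histidine-tRNA ligase, Leishmania infantum (UniProt A4I591). Enzyme assay of histidyl-tRNA synthetase; the read-out is not stated. Concentration: 30 µM. Direction is inferred from retests: higher values go with stronger inhibition. The assay is labelled LdHisRS but filed under L. infantum. Of about 69,000 compounds tested this way, about 410 (0.6%) reached 50% or more in at least one test.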
Pks13 thioesterase: 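Polyketide synthase Pks13, Mycobacterium tuberculosis (UniProt I6X8D2). Enzyme assay of the thioesterase domain of polyketide synthase 13; the read-out is not stated. Tested at 30 µM. The record gives no direction; the compounds picked for IC50 retests had high values, so higher reads as stronger inhibition. Of about 67,000 compounds tested this way, about 300 (0.46%) reached 50% or more in at least one test.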

SMILES	LiHisRS	Pks13 thioesterase
c1ccc2c(c1)nnn2CCCNC1CCOC2(CCOCC2)C1 (centres undefined)	18.99	-36.66
COC[C@@]12CCO[C@@H]1CCN(C(=O)Cc1ccc(C)cc1)C2	4.839	-8.592
CC(=O)N1CCC(NCc2cccnc2N(C)Cc2ccccc2)CC1	9.677	-20.59
Cn1cc(CC2CCN(C(=O)NCCCc3ccc(O)cc3)C2)cn1 (centres undefined)	6.849	-9.737
O=C(c1ccnn1COc1ccc(Cl)cc1)N1CCCC1	10.11	-10.55
Cc1nc(N2CCCC2)nc2c1CCN(C(=O)NC1CCCC1)CC2	10.26	8.087
c1ncn(CC2CCCN(Cc3noc(C4CC4)n3)C2)n1 (centres undefined)	5.263	-0.543
Cc1cccn2cc(C(=O)N3CCCN(CC4CC4)C(C(C)C)C3)nc12 (centres undefined)	17.74	-27.32
Cc1ccccc1OC1CCN(CC(=O)Nc2c(C)nn(C)c2C)CC1	9.396	-3.754
O=C(Cn1cc(C2CC2)nn1)N(Cc1ccco1)Cc1cccs1	8.108	0.3623
COc1ccccc1CC(C)(C)NC(=O)CNS(C)(=O)=O	2.679	-6.541
O=C1CCC(=O)N1c1nn(Cc2ccccc2)cc1Cl	-2.062	-29.53
Cc1ncnc2c1CCN(C(=O)c1cccnc1)CC2	5.405	-18.17
CC(=O)N(Cc1ncc(C)o1)C1CCN(Cc2cccnc2)C1 (centres undefined)	23.08	-0.007364
Cc1ccccc1CN1CC[C@@]2(O)CCN(C(=O)C3CCC3)C[C@H]2C1	11.43	-23.54
COCCN1C2(CCN(Cc3nccs3)C2)c2ccccc2S1(=O)=O (centres undefined)	22	-6.593
Cc1ccc(S(=O)(=O)Nc2ccc(-n3cccc3C(=O)O)c(C)c2)s1	22.86	-22.54
Cc1cc(CN2CCCC(c3cc(C(F)(F)F)[nH]n3)C2)no1 (centres undefined)	15.52	-7.703
Cc1cn(CC(=O)N(C)Cc2cccc3ncccc23)c(=O)[nH]c1=O	-3.419	25.89
c1coc(CN2CCC3(CC2)COC(COCC2CCOCC2)C3)c1 (centres undefined)	11.54	-26.74
COCC(=O)NCc1ccc(-c2ncncc2C(=O)N(C)C)cc1	8.392	-3.434
C=C(C)CNCC1(O)CCCN(Cc2ccc(F)c(F)c2)C1=O (centres undefined)	15.29	-37.02
Cc1cnc(C)c(N2CCN(Cc3ccc(C)c(C)c3)CC2)n1	11.48	-2.284
O=C(c1ccncc1)N1C[C@@H]2OCCN(CCN3CCCC3)[C@@H]2C1	16	-58.21
Cc1csc(N2CCN(CC(=O)N3CCCC3)CC2C)n1 (centres undefined)	5.505	-8.628
Cn1cccc1C(=O)N1C[C@@H]2CCN(c3cccnc3)C[C@@H]2C1	-5.882	0.1141
CNc1cc(C)nc(N2C[C@H](NC(=O)C3CCOCC3)[C@@H](C3CC3)C2)n1	-3.03	-0.9291
CN(CC(=O)NC(C)(C#N)C1CC1)Cc1nnc(C2CC2)n1C (centres undefined)	24.14	-37.13
O=C(CO)N1C[C@H]2CN(Cc3cccc(F)c3)C(=O)[C@H]2C1	4.587	-5.425
N#Cc1c(CN2CCCCC2Cn2cncn2)cn2ccccc12 (centres undefined)	18.75	3.151
COC(=O)C1=C(C)N=C2SCC(=O)N2C1c1cnn(C)c1C (centres undefined)	18.58	-91.29
COCc1cc(N(C)CCC(O)c2ccccc2)n2nccc2n1 (centres undefined)	11.48	1.401
CCS(=O)(=O)NCCNC(=O)c1cc(Cl)c2c(c1)OCCCO2	20.75	-11.29
CCc1nc(C(=O)N2CCN(Cc3ccc(Cl)cc3)CC2)c[nH]1	10	-36.46
Cc1cnn(CCNCc2csc(-c3ccsc3)n2)c1	23.21	-7.057
CS(=O)(=O)NC1CCCN(C(=O)Nc2cccnc2N2CCCC2)C1 (centres undefined)	5.319	-3.552
CC(C)(C)c1noc(CCCC(=O)NCC2CCS(=O)(=O)C2)n1 (centres undefined)	10.71	1.762
CC(C)c1ccc(C(N)c2cccs2)cc1 (centres undefined)	2.857	-
CC(=O)N1CCCC1c1cc(N2CCN(CC3CC3)CC2)cc(C)n1 (centres undefined)	15.94	6.87
CSCCC(NC(=O)C1CC1)C(=O)N(C)Cc1ccsc1 (centres undefined)	-4.145	-1.759
Cc1cc(C)n(CC(C)CNC(=O)N(C)Cc2cc(C)on2)n1 (centres undefined)	6.806	-25.3
CC(=O)N1CCC(NC2(Cc3cc(C(C)(C)O)on3)COC2)CC1	11.11	-15.49
CCc1ncc(CN2CCC(O)(c3ccccc3F)CC2)cn1	5.797	-0.2663
O=C1CC(NS(=O)(=O)c2ccc(Cl)cc2)CN1 (centres undefined)	-2.247	-1.364
CC(C)NS(=O)(=O)c1cc(C(=O)O)cc(-c2ccccc2F)c1	8.197	-41.4
Cc1cc(NCCNc2ccc(C#N)cn2)nc(C)n1	6.612	27.23
Cc1cc(-c2cnc(C3CC3)nc2CN(C)C(=O)c2ccccn2)on1	13.1	-0.06981
COc1ccc(CN(C)CC2CCCN2c2cccnn2)cc1F (centres undefined)	8	5.127
O=C(NCCCN1CCOCC1)c1ccc(Cl)cc1Cl	8.235	-19.81
CS(=O)(=O)NC[C@H]1OC[C@@H]2CCN(Cc3ccc(F)cc3)C[C@@H]21	9.434	4.804
Cc1nc(CN2CC[C@@H](OCC3CC3)[C@@H]2Cc2cccnc2)cs1	16.67	-13.27
CC(C)(NC(=O)c1ccc(-c2ccccc2F)s1)C(N)=O	2.151	-2.161
COCCNC(=O)Nc1ccc(C(=O)N2CCSCC2)cc1C	12.8	-12.56
O=C(Nc1nnc(C(F)F)s1)NC(CCO)c1cccs1 (centres undefined)	8.929	-10.79
Cn1cnnc1C1CCCN(C(=O)NCc2cc[nH]n2)C1 (centres undefined)	28.79	-31.47
O=C(NCc1cccs1)[C@@H]1CC[C@@H]2[C@@H](CCN2C2CCOCC2)O1	20.51	21.9
O=C1CC(C(=O)N2CCc3sccc3C2)CN1Cc1cccnc1 (centres undefined)	19.15	-2.476
O=C(c1ccccn1)N1CCC2(CC1)CN(c1cncnc1)C(=O)CO2	18	-
CCc1nnc(CNC(=O)CCN2CCN(c3cccc(C)c3)CC2)s1	16.8	-23.82
CCOc1nnc(CN2CCN(CCOC)C(CC)C2)s1 (centres undefined)	13.39	-3.903

Some entries from above, unchanged:

SMILES,LiHisRS,Pks13 thioesterase
O=C1CCC(=O)N1c1nn(Cc2ccccc2)cc1Cl,-2.062,-29.53
c1coc(CN2CCC3(CC2)COC(COCC2CCOCC2)C3)c1 (centres undefined),11.54,-26.74
O=C(CO)N1C[C@H]2CN(Cc3cccc(F)c3)C(=O)[C@H]2C1,4.587,-5.425
CCOc1nnc(CN2CCN(CCOC)C(CC)C2)s1 (centres undefined),13.39,-3.903
CCc1nc(C(=O)N2CCN(Cc3ccc(Cl)cc3)CC2)c[nH]1,10,-36.46
CC(=O)N1CCC(NCc2cccnc2N(C)Cc2ccccc2)CC1,9.677,-20.59